Results deposited as PubChem BioAssay AID1259425 (University of Nebraska Medical Center, 2018).
Here is one part, drawn at random, of about 14,000 deposited reagents. Further read-outs or replicates are left out here. Not given: the time to read-out.

Test: 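Compare each knockdown with KSR1 silencing using changes in marker transcripts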 (primary screen)
Cell system: HCT116 human colon cancer cells
Reagent: siRNA pool against human genes, 50 nM siRNA
Measurement: 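After 50 nM siRNA pool, branched-DNA assay measures six marker transcripts per well, minus blank, normalised to the geometric mean of two housekeeping transcripts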
Reading the numbers: BNIP3L mRNA: higher = more BNIP3L transcript after knockdown; NDRG1 mRNA: higher = more NDRG1 transcript after knockdown

CTSV (cathepsin V): BNIP3L mRNA, set 1 = 0.107; NDRG1 mRNA, set 1 = 0.106
STMN4 (stathmin 4): BNIP3L mRNA, set 1 = 0.152; NDRG1 mRNA, set 1 = 0.167
ATG12 (autophagy related 12): BNIP3L mRNA, set 1 = 0.149; NDRG1 mRNA, set 1 = 0.0973
AZU1 (azurocidin 1): BNIP3L mRNA, set 1 = 0.0424; NDRG1 mRNA, set 1 = 0.6
LINC01565 (long independently transcribed non-coding RNA 1565): BNIP3L mRNA, set 1 = 0.0763; NDRG1 mRNA, set 1 = 0.25
MORF4 (mortality factor 4 (pseudogene)): BNIP3L mRNA, set 1 = 0.218; NDRG1 mRNA, set 1 = 0.379
FUT9 (fucosyltransferase 9): BNIP3L mRNA, set 1 = 0.0753; NDRG1 mRNA, set 1 = 0.19
RIT2 (Ras like without CAAX 2): BNIP3L mRNA, set 1 = 0.0697; NDRG1 mRNA, set 1 = 0.129
NYAP2: BNIP3L mRNA, set 1 = 0.0821; NDRG1 mRNA, set 1 = 0.768
CXCR5 (C-X-C motif chemokine receptor 5): BNIP3L mRNA, set 1 = 0.153; NDRG1 mRNA, set 1 = 0.229
MUC1 (mucin 1, cell surface associated): BNIP3L mRNA, set 1 = 0.158; NDRG1 mRNA, set 1 = 1.46
RPL36AL (ribosomal protein L36a like): BNIP3L mRNA, set 1 = 0.311; NDRG1 mRNA, set 1 = 0.505

2 of these entries, reformatted.
target,"BNIP3L mRNA, set 1","NDRG1 mRNA, set 1"
STMN4 (stathmin 4),0.152,0.167
ATG12 (autophagy related 12),0.149,0.0973
